{"sequences": {"note": "The chains behind the UniProt entries cited, without tags or fusion partners. Residues count along the entry.", "UniProt Q9UF56": "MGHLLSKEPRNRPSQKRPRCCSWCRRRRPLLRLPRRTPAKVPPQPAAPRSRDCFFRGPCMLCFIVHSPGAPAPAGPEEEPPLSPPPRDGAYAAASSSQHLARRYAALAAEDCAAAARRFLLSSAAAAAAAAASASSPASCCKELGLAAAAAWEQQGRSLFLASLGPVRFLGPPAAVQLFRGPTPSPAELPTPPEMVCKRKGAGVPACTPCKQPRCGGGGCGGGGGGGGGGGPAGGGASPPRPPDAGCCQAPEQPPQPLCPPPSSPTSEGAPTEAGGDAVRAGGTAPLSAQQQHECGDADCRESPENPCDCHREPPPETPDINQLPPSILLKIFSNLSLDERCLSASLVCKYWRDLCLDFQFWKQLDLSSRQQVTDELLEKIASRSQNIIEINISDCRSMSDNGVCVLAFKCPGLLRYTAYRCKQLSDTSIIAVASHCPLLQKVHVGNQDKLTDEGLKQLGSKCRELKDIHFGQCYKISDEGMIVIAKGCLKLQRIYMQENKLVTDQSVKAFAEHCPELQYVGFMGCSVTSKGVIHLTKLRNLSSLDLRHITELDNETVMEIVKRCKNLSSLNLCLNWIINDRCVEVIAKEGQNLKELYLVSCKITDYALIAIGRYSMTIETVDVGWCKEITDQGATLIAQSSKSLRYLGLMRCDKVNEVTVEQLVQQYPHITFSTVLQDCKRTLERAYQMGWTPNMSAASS", "UniProt P63208": "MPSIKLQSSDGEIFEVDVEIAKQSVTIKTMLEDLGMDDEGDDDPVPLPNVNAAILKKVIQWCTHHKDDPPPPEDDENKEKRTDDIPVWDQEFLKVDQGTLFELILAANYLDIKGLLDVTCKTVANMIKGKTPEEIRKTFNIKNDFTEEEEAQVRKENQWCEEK", "UniProt Q04721, residues 26-2471": "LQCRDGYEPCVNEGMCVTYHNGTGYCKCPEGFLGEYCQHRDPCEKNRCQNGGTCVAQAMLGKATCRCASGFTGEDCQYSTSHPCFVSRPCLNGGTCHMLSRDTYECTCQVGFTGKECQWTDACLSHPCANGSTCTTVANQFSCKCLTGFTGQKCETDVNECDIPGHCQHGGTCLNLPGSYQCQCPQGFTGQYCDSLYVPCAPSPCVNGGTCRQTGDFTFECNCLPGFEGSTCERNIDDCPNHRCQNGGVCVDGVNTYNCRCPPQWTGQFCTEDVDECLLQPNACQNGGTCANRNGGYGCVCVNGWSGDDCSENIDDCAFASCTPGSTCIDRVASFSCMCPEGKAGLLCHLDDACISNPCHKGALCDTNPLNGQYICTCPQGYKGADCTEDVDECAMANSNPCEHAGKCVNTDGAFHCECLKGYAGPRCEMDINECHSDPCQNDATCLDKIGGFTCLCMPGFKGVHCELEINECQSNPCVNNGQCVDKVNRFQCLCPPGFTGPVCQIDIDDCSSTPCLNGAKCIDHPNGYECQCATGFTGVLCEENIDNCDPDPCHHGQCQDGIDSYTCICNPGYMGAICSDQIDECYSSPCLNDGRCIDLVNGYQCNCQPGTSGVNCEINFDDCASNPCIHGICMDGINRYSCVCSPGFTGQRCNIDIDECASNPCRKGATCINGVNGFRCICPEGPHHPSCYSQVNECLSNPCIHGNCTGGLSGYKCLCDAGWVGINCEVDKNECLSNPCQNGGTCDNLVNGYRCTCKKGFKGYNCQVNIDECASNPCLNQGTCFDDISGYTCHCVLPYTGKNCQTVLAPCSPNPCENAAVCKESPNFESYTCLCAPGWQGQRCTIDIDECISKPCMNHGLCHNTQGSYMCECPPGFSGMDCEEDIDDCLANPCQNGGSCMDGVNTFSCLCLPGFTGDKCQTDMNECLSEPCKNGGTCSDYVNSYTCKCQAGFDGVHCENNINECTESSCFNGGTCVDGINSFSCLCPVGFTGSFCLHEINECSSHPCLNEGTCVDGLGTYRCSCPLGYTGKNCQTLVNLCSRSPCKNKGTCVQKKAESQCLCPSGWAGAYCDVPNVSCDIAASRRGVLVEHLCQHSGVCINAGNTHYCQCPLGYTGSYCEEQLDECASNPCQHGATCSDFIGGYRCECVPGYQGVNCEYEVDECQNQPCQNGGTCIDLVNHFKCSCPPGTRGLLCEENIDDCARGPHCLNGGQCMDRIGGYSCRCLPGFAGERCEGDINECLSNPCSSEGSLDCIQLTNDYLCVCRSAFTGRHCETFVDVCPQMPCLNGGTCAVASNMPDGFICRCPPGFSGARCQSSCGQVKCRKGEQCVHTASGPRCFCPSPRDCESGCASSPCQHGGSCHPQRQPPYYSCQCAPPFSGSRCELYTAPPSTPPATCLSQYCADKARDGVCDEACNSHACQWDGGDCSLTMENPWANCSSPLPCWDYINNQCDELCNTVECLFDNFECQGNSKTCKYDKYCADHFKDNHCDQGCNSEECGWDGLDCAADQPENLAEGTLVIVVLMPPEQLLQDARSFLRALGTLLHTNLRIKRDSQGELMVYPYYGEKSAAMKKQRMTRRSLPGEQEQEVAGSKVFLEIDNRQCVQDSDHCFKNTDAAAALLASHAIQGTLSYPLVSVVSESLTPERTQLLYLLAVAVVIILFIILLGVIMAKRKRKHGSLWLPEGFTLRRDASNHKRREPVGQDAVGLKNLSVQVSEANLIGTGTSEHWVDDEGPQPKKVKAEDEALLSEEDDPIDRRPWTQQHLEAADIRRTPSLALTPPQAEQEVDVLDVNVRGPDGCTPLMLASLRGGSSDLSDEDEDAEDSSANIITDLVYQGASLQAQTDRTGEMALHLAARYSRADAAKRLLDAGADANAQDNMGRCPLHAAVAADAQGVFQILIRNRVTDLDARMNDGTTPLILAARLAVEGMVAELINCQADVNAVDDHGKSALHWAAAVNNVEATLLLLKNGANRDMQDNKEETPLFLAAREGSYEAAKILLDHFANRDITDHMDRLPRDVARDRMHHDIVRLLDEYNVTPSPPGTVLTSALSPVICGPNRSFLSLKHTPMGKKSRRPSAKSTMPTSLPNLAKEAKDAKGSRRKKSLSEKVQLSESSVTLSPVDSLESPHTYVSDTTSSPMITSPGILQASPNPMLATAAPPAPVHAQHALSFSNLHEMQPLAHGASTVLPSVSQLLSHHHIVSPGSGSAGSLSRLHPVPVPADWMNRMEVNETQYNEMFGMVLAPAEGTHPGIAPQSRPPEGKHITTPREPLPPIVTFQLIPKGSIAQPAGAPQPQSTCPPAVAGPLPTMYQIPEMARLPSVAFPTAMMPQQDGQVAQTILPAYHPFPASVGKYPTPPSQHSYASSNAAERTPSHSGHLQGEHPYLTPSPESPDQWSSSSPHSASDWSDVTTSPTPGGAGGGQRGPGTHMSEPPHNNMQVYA", "UniProt O14641": "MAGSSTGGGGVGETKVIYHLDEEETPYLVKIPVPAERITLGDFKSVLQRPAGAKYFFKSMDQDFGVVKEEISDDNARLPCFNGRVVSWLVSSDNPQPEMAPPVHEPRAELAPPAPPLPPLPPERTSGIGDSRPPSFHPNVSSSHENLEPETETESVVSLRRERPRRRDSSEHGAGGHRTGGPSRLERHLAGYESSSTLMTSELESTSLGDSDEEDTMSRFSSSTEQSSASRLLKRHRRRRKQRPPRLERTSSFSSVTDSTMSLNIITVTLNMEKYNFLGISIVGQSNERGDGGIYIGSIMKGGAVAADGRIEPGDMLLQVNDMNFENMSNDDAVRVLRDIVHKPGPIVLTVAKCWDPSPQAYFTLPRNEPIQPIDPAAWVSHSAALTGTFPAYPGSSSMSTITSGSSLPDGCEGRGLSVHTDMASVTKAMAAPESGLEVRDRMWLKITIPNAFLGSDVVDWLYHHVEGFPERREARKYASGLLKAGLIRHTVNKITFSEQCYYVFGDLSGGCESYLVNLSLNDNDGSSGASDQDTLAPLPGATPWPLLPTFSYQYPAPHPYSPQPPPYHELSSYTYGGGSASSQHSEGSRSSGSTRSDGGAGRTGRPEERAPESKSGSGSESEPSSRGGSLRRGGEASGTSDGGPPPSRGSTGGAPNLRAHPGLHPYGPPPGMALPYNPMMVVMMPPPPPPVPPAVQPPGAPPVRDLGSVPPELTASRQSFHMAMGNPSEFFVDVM", "UniProt Q9BY89": "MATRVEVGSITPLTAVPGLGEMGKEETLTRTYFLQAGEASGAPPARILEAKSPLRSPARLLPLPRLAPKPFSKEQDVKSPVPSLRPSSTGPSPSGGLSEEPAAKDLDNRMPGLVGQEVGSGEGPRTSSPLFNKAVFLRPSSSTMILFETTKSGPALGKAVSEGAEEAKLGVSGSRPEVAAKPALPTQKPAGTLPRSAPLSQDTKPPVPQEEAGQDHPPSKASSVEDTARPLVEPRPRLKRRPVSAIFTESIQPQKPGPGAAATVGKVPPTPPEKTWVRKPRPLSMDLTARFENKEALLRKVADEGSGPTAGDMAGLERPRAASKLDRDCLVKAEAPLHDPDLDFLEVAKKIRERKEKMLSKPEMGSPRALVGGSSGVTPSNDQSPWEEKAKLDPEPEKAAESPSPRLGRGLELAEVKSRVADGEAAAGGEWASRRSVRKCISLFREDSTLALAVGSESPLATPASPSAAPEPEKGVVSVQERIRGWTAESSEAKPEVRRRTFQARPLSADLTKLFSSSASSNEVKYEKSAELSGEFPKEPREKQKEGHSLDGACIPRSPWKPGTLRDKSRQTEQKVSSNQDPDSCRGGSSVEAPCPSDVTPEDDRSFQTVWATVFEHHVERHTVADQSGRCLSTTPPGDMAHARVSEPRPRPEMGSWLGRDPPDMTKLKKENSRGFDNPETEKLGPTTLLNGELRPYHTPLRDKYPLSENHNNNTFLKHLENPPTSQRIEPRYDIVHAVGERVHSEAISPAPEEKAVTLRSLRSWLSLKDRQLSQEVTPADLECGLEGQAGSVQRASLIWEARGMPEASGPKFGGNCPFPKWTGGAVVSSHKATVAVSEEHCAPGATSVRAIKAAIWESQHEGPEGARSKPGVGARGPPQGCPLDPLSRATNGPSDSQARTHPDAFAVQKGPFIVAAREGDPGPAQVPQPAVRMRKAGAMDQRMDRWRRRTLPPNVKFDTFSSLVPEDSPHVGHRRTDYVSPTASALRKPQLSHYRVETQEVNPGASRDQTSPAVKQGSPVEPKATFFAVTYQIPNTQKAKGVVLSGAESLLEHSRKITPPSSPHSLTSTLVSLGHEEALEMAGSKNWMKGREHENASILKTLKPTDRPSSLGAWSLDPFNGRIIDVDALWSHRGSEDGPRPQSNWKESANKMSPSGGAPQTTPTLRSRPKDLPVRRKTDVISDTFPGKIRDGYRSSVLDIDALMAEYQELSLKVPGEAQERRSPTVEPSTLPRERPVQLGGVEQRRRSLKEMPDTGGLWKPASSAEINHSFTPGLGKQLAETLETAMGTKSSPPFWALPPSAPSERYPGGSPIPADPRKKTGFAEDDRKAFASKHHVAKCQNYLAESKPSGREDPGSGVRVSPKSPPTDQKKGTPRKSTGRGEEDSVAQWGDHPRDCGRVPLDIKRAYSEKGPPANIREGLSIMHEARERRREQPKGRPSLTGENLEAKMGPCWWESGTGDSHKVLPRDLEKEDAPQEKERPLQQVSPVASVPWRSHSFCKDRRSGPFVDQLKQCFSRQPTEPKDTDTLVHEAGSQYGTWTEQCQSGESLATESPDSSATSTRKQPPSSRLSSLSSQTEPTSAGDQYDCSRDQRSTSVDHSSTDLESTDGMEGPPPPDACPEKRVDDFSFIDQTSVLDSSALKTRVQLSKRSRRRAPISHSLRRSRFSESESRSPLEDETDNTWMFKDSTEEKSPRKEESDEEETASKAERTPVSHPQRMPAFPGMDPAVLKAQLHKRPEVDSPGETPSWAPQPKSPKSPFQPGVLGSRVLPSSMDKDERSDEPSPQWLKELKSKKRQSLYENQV"}, "source": "paper PMC4884786", "note": "Results are given in words; binding and its absence hold for the method and conditions named. In cells and extracts the contact can be indirect. A yes stands for co-enrichment or nearness to the bait. Other partners may have been found."}
{"biological_target": "3×Flag‐tagged Fbxl17 (F‐box and leucine‐rich repeat protein 17) (human) (UniProt Q9UF56)", "assay": "affinity purification with mass spectrometry; 3×Flag‐tagged (Flag/Myc‐tagged) Fbxl17 immunoprecipitated from HEK293T cells, eluted with Flag peptide, LC‐MS/MS; summary of four independent experiments, filtered against 8 analyses of unrelated F‐box proteins"}
{"molecule": "Skp1 (S‐phase kinase‐associated protein 1) (from UniProt P63208 1-163)", "binding": "binds"}
{"molecule": "Notch 2 (from UniProt Q04721 26-2471)", "binding": "binds"}
{"molecule": "DSH homolog 2 (from UniProt O14641 1-736)", "binding": "binds"}
{"molecule": "KIAA1671 (from UniProt Q9BY89 1-1806)", "binding": "binds"}
{"molecule": "SgK396 (protein, UniProt Q9BXU1 1-1019) MWVQGHSSRASATESVSFSGIVQMDEDTHYDKVEDVVGSHIEDAVTFWAQSINRNKDIMKIGCSLSEVCPQASSVLGNLDPNKIYGGLFSEDQCWYRCKVLKIISVEKCLVRYIDYGNTEILNRSDIVEIPLELQFSSVAKKYKLWGLHIPSDQEVTQFDQGTTFLGSLIFEKEIKMRIKATSEDGTVIAQAEYGSVDIGEEVLKKGFAEKCRLASRTDICEEKKLDPGQLVLRNLKSPIPLWGHRSNQSTFSRPKGHLSEKMTLDLKDENDAGNLITFPKESLAVGDFNLGSNVSLEKIKQDQKLIEENEKLKTEKDALLESYKALELKVEQIAQELQQEKAAAVDLTNHLEYTLKTYIDTRMKNLAAKMEILKEMRHVDISVRFGKDLSDAIQVLDEGCFTTPASLNGLEIIWAEYSLAQENIKTCEYVSEGNILIAQRNEMQQKLYMSVEDFILEVDESSLNKRLKTLQDLSVSLEAVYGQAKEGANSDEILKKFYDWKCDKREEFTSVRSETDASLHRLVAWFQRTLKVFDLSVEGSLISEDAMDNIDEILEKTESSVCKELEIALVDQGDADKEIISNTYSQVLQKIHSEERLIATVQAKYKDSIEFKKQLIEYLNKSPSVDHLLSIKKTLKSLKALLRWKLVEKSNLEESDDPDGSQIEKIKEEITQLRNNVFQEIYHEREEYEMLTSLAQKWFPELPLLHPEIGLLKYMNSGGLLTMSLERDLLDAEPMKELSSKRPLVRSEVNGQIILLKGYSVDVDTEAKVIERAATYHRAWREAEGDSGLLPLIFLFLCKSDPMAYLMVPYYPRANLNAVQANMPLNSEETLKVMKGVAQGLHTLHKADIIHGSLHQNNVFALNREQGIVGDFDFTKSVSQRASVNMMVGDLSLMSPELKMGKPASPGSDLYAYGCLLLWLSVQNQEFEINKDGIPKVDQFHLDDKVKSLLCSLICYRSSMTAEQVLNAECFLMPKEQSVPNPEKDTEYTLYKKEEEIKTENLDKCMEKTRNGEANFDC", "binding": "binds"}
{"molecule": "PPM1G (protein, UniProt O15355 1-546) MGAYLSQPNTVKCSGDGVGAPRLPLPYGFSAMQGWRVSMEDAHNCIPELDSETAMFSVYDGHGGEEVALYCAKYLPDIIKDQKAYKEGKLQKALEDAFLAIDAKLTTEEVIKELAQIAGRPTEDEDEKEKVADEDDVDNEEAALLHEEATMTIEELLTRYGQNCHKGPPHSKSGGGTGEEPGSQGLNGEAGPEDSTRETPSQENGPTAKAYTGFSSNSERGTEAGQVGEPGIPTGEAGPSCSSASDKLPRVAKSKFFEDSEDESDEAEEEEEDSEECSEEEDGYSSEEAENEEDEDDTEEAEEDDEEEEEEMMVPGMEGKEEPGSDSGTTAVVALIRGKQLIVANAGDSRCVVSEAGKALDMSYDHKPEDEVELARIKNAGGKVTMDGRVNGGLNLSRAIGDHFYKRNKNLPPEEQMISALPDIKVLTLTDDHEFMVIACDGIWNVMSSQEVVDFIQSKISQRDENGELRLLSSIVEELLDQCLAPDTSGDGTGCDNMTCIIICFKPRNTAELQPESGKRKLEEVLSTEGAEENGNSDKKKKAKRD", "binding": "binds"}
{"molecule": "ZBTB10 (protein, UniProt Q96DT7 1-871) MSFSEMNRRTLAFRGGGLVTASGGGSTNNNAGGEASAWPPQPQPRQPPPPAPPALQPPNGRGADEEVELEGLEPQDLEASAGPAAGAAEEAKELLLPQDAGGPTSLGGGAGGPLLAERNRRTLAFRGGGGGGLGNNGSSRGRPETSVWPLRHFNGRGPATVDLELDALEGKELMQDGASLSDSTEDEEEGASLGDGSGAEGGSCSSSRRSGGDGGDEVEGSGVGAGEGETVQHFPLARPKSLMQKLQCSFQTSWLKDFPWLRYSKDTGLMSCGWCQKTPADGGSVDLPPVGHDELSRGTRNYKKTLLLRHHVSTEHKLHEANAQESEIPSEEGYCDFNSRPNENSYCYQLLRQLNEQRKKGILCDVSIVVSGKIFKAHKNILVAGSRFFKTLYCFSNKESPNQNNTTHLDIAAVQGFSVILDFLYSGNLVLTSQNAIEVMTVASYLQMSEVVQTCRNFIKDALNISIKSEAPESVVVDYNNRKPVNRDGLSSSRDQKIASFWATRNLTNLASNVKIENDGCNVDEGQIENYQMNDSSWVQDGSPEMAENESEGQTKVFIWNNMGSQGIQETGKTRRKNQTTKRFIYNIPPNNETNLEDCSVMQPPVAYPEENTLLIKEEPDLDGALLSGPDGDRNVNANLLAEAGTSQDGGDAGTSHDFKYGLMPGPSNDFKYGLIPGTSNDFKYGLIPGASNDFKYGLLPESWPKQETWENGESSLIMNKLKCPHCSYVAKYRRTLKRHLLIHTGVRSFSCDICGKLFTRREHVKRHSLVHKKDKKYKCMVCKKIFMLAASVGIRHGSRRYGVCVDCADKSQPGGQEGVDQGQDTEFPRDEEYEENEVGEADEELVDDGEDQNDPSRWDESGEVCMSLDD", "binding": "binds"}
{"molecule": "TAB 1 (protein, UniProt O43318 1-606) MSTASAASSSSSSSAGEMIEAPSQVLNFEEIDYKEIEVEEVVGRGAFGVVCKAKWRAKDVAIKQIESESERKAFIVELRQLSRVNHPNIVKLYGACLNPVCLVMEYAEGGSLYNVLHGAEPLPYYTAAHAMSWCLQCSQGVAYLHSMQPKALIHRDLKPPNLLLVAGGTVLKICDFGTACDIQTHMTNNKGSAAWMAPEVFEGSNYSEKCDVFSWGIILWEVITRRKPFDEIGGPAFRIMWAVHNGTRPPLIKNLPKPIESLMTRCWSKDPSQRPSMEEIVKIMTHLMRYFPGADEPLQYPCQYSDEGQSNSATSTGSFMDIASTNTSNKSDTNMEQVPATNDTIKRLESKLLKNQAKQQSESGRLSLGASRGSSVESLPPTSEGKRMSADMSEIEARIAATTAYSKPKRGHRKTASFGNILDVPEIVISGNGQPRRRSIQDLTVTGTEPGQVSSRSSSPSVRMITTSGPTSEKPTRSHPWTPDDSTDTNGSDNSIPMAYLTLDHQLQPLAPCPNSKESMAVFEQHCKMAQEYMKVQTEIALLLQRKQELVAELDQDEKDQQNTSRLVQEHKKLLDENKSLSTYYQQCKKQLEVIRSQQQKRQGTS", "binding": "binds"}
{"molecule": "Praja2 (protein, UniProt O43164 1-708) MSQYTEKEPAAMDQESGKAVWPKPAGGYQTITGRRYGRRHAYVSFKPCMTRHERSLGRAGDDYEVLELDDVPKENSSGSSPLDQVDSSLPSEPIFEKSETEIPTCGSALNQTTESSQSFVAVHHSEEGRDTLGSSTNLHNHSEGEYIPGACSASSVQNGIALVHTDSYDPDGKHGEDNDHLQLSAEVVEGSRYQESLGNTVFELENREAEAYTGLSPPVPSFNCEVRDEFEELDSVPLVKSSAGDTEFVHQNSQEIQRSSQDEMVSTKQQNNTSQERQTEHSPEDAACGPGHICSEQNTNDREKNHGSSPEQVVRPKVRKLISSSQVDQETGFNRHEAKQRSVQRWREALEVEESGSDDLLIKCEEYDGEHDCMFLDPPYSRVITQRETENNQMTSESGATAGRQEVDNTFWNGCGDYYQLYDKDEDSSECSDGEWSASLPHRFSGTEKDQSSSDESWETLPGKDENEPELQSDSSGPEEENQELSLQEGEQTSLEEGEIPWLQYNEVNESSSDEGNEPANEFAQPAFMLDGNNNLEDDSSVSEDLDVDWSLFDGFADGLGVAEAISYVDPQFLTYMALEERLAQAMETALAHLESLAVDVEVANPPASKESIDGLPETLVLEDHTAIGQEQCCPICCSEYIKDDIATELPCHHFFHKPCVSIWLQKSGTCPVCRRHFPPAVIEASAAPSSEPDPDAPPSNDSIAEAP", "binding": "binds"}
